Literature values, collected in patent US8119168B2, “Personal care compositions comprising a zinc containing material in an aqueous surfactant composition” (The Procter & Gamble Company, priority 2002, dated 2012).
At least one compound was matched to its structure with a doubt left.

Conditions: cited from earlier work

## Cc1cc(C2(c3cc(C)c(O)c(CN(CC(=O)O)CC(=O)O)c3)OS(=O)(=O)c3ccccc32)cc(CN(CC(=O)O)CC(=O)O)c1O [Xylenol Orange]
  Log Zn Binding Constant: 10.3
